Test results: patent publication US6455537B1, “Methods for treating opiate intolerance” (priority 1999, dated 2002)

System: analgesic effects of morphine
Assay: Antagonism of morphine analgesia, tail flick test in rats
Conditions: therapeutic ratio; i.v. doses, rat versus dog ED84

| SMILES | Ratio of the Dose Antagonizing Morphine Analgesia Divided by the Dose Protecting Animals from Morphine Induced Emesis |
| --- | --- |
| C=CC[N+]1(C)CC[C@]23c4c5ccc(O)c4O[C@H]2C(=O)CC[C@@]3(O)[C@H]1C5 (stereo partly shown) [N-methylnaloxone] | 14 |
| C=CC[N+]1(C)CC[C@]23c4c5ccc(O)c4O[C@H]2[C@@H](O)C=CC3[C@H]1C5 (stereo partly shown) [S N-methylnalorphine] | Emetic |
| C=CC[N@@+]1(C)CC[C@]23c4c5ccc(O)c4O[C@H]2[C@@H](O)C=C[C@H]3[C@H]1C5 [R N-methylnalorphine, (5α,6α,17R)-7,8-didehydro-4,5-epoxy-3,6-dihydroxy-17-methyl-17-(2-propenyl)morphinanium chloride] | 273 |
| C[N@+]1(CC2CC2)CC[C@]23c4c5ccc(O)c4O[C@H]2C(=O)CC[C@@]3(O)[C@H]1C5 [N-methylnaltrexone] | 60 |
